Source: patent US20070049521A1
Results are given in words; binding and its absence hold for the method and conditions named. Some binding calls cover weakened binding; strength is not graded here. For some of these results: Tags and fused reporters may be left off the sequences shown. Values belong to the binder of their own block, whether it stands above or below them.

Columns and labels:
[1] = molecular target: T1, NPR-C on ATDC5 cells (mouse chondrogenic cell line) (mouse) (UniProt P70180); assay: displacement of 125I-Ostn[83-133] from ATDC5 cells by cold peptide and C-ANF
T1 sequence (looked up): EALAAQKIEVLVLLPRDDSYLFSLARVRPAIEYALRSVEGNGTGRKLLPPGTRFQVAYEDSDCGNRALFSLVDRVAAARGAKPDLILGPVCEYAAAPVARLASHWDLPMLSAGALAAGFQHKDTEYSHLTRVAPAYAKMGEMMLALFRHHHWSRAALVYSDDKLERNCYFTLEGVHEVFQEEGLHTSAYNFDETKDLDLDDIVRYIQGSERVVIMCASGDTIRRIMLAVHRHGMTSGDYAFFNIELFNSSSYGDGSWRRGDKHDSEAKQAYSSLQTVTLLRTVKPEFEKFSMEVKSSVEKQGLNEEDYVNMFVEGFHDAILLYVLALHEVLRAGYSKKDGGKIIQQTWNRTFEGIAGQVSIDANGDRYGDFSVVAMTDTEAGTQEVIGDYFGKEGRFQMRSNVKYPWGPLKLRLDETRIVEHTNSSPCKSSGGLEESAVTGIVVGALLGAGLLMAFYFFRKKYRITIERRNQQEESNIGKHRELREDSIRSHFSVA

[2] = molecular target: T2, human NPR-C (natriuretic peptide receptor C, clearance receptor), overexpressed on HEK293 cells (human) (UniProt P17342); assay: PLAP activity bound to NPR-C-transfected HEK293 cells
T2 sequence (looked up): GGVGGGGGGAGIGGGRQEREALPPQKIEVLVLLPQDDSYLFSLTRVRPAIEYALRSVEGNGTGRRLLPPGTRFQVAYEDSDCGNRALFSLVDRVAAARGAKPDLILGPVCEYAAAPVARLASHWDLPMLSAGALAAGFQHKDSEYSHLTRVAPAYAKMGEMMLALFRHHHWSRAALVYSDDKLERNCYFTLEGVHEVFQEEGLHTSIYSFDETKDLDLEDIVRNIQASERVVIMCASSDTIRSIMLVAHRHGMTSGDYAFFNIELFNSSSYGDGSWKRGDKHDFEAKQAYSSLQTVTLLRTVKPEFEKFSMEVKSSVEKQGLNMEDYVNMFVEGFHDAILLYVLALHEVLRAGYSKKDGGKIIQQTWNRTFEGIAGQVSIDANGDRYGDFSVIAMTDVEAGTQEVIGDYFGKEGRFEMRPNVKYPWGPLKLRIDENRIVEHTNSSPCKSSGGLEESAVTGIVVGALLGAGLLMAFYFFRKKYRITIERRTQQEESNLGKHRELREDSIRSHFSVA

[3] = molecular target: T2, human NPR-C (natriuretic peptide receptor C, clearance receptor), overexpressed on HEK293 cells (human); assay: PLAP activity bound to transfected HEK293 cells (summary of the experiment)
[4] = molecular target: T2, human NPR-C (natriuretic peptide receptor C, clearance receptor), overexpressed on HEK293 cells (human); assay: competition of PLAP-Ostn binding to NPR-C (summary of the experiment)

binding [1]: binds
B1: human Ostn[83-133] (cold) (peptide)
peptide: SFSGFGSPLDRLSAGSVDHKGKQRKVVDHPKRRFGIPMDRIGRNRLSNSRG

binding [2]: binds | binding [3]: binds
B2: PLAP-Ostn fusion protein (N-terminal secreted placental alkaline phosphatase moiety linked to mouse Ostn[29-130]) (protein)
chain: DAAQPARRARRTYEAYVRSSGIIPVEEENPDFWNREAAEALGAAKKLQPAQTAAKNLIIFLGDGMGVSTVTAARILKGQKKDKLGPEIPLAMDRFPYVALSKTYNVDKHVPDSGATATAYLCGVKGNFQTIGLSAAARFNQCNTTRGNEVISVMNRAKKAGKSVGVVTTTRVQHASPAGTYAHTVNRNWYSDADVPASARQEGCQDIATQLISNMDIDVILGGGRKYMFPMGTPDPEYPDDYSQGGTRLDGKNLVQEWLAKRQGARYVWNRTELMQASLDPSVTHLMGLFEPGDMKYEIHRDSTLDPSLMEMTEAALRLLSRNPRGFFLFVEGGRIDHGHHESRAYRALTETIMFDDAIERAGQLTSEEDTLSLVTADHSHVFSFGGYPLRGSSIFGLAPGKARDRKAYTVLLYGNGPGYVLKDGARPDVTESESGSPEYRQQSAVPLDEETHAGEDVAVFARGPQAHLVHGVQEQTFIAHVMAFAACLEPYTACDLAPPAGTTDAAHPGYLDLASQEFGTASLQSPPTAREEKSATELSAKLLRLDDLVSLENDVFETKKKRSFSGFGSPLDRLSAGSVEHRGKQRKAVDHSKKRFGIPMDRIGRNRLSSSRG

binding [4]: binds
Binder: YDHSKKRFGIPMDRIGRNRLSNSR (amidated (C-terminal amide)) [mouse amidated Ostn[107-129] synthetic C-terminal peptide]
